Experimental data taken from patent US20140235520A1, “Perfume Compositions” (Givaudan Nederland Services B.V., priority 2005, published 2014).
Some entries share one result that the patent states for a list of compounds. At least one read-out could not be matched to a standard name with certainty. At least one compound was matched to its structure with a doubt left.

Test system: Escherichia coli ATCC 10536
Assay: Standardised biofilm detachment assay (96 well microtitre plate, crystal violet OD540) in quarter strength GPC base Formula A
Type: cell-based
Conditions: ingredient as 1 of 4 equal-weight ingredients (other 3 Group B), perfume 0.25% w/w in quarter strength GPC base Formula A, 20 min 21° C., flavour ingredients classed in toothpaste base

SMILES | Group (PDV class: active / non-active / antagonist to biofilm detachment) | Group (PDV class: active / non-active / antagonist to biofilm detachment) (listed as Anisic aldehyde)
CC(=O)C1(C)CC2C(=CC1C)CCCC2(C)C (centres unmarked) [1-(2,3,8,8-tetramethyl-1,2,3,5,6,7,8,8a-octahydronaphthalen-2-yl)ethanone] | A (Group A materials that assist biofilm detachment are defined as those having a PDV (as defined above) of at least 9) | –
COc1ccc(C=O)cc1 [anisic aldehyde] | A (Group A materials that assist biofilm detachment are defined as those having a PDV (as defined above) of at least 9) | B (Group B materials that are non-active to biofilm detachment are defined as those having a PDV (as defined above) of less than 9 and greater than 0)
CC(=O)c1cc2c(cc1C)C(C)(C)C(C)C2(C)C (centres unmarked) [1-(1,1,2,3,3,6-hexamethyl-2,3-dihydro-1H-inden-5-yl)ethanone] | A (Group A materials that assist biofilm detachment are defined as those having a PDV (as defined above) of at least 9) | –
CC(O)CO (centres unmarked) [propane-1,2-diol] | A (Group A materials that assist biofilm detachment are defined as those having a PDV (as defined above) of at least 9) | –
O=C1CCCCCCCCCCCCCC1 [cyclopentadecanone] | A (Group A materials that assist biofilm detachment are defined as those having a PDV (as defined above) of at least 9) | –
O=C/C=C/c1ccccc1 [cinnamic aldehyde extra DQ, cinnamic aldehyde] | A (Group A materials that assist biofilm detachment are defined as those having a PDV (as defined above) of at least 9) | –
CCCCCCCCCCCC#N [dodecanenitrile] | A (Group A materials that assist biofilm detachment are defined as those having a PDV (as defined above) of at least 9) | –
CCCCCC/C(C=O)=C\c1ccccc1 [(2E)-2-hexyl-3-phenylprop-2-enal] | A (Group A materials that assist biofilm detachment are defined as those having a PDV (as defined above) of at least 9) | –
CC(=O)OC1CC2CCC1(C)C2(C)C (centres unmarked) [1,7,7-trimethylbicyclo[2.2.1]hept-2-yl acetate] | B (Group B materials that are non-active to biofilm detachment are defined as those having a PDV (as defined above) of less than 9 and greater than 0) | –
c1ccc2[nH]ccc2c1 [Composition 1H-indole, 1H-indole] | A (Group A materials that assist biofilm detachment are defined as those having a PDV (as defined above) of at least 9) | –
CCCc1ccc(O)c(OC)c1 [2-(methyloxy)-4-propylphenol] | B (Group B materials that are non-active to biofilm detachment are defined as those having a PDV (as defined above) of less than 9 and greater than 0) | –
CC(=O)c1cc2c(cc1C)C(C)(C)C(C)C2C(C)C (centres unmarked) [1-[1,1,2,6-tetramethyl-3-(1-methylethyl)-2,3-dihydro-1H-inden-5-yl]ethanone] | A (Group A materials that assist biofilm detachment are defined as those having a PDV (as defined above) of at least 9) | –
C=CC(C)(CCC=C(C)C)OC(C)=O (centres unmarked) [1-ethenyl-1,5-dimethylhex-4-enyl acetate] | B (Group B materials that are non-active to biofilm detachment are defined as those having a PDV (as defined above) of less than 9 and greater than 0) | –
CC(=O)c1cc2c(cc1C)C(C)(C)C(C)CC2(C)C (centres unmarked) [1-(3,5,5,6,8,8-hexamethyl-5,6,7,8-tetrahydronaphthalen-2-yl)ethanone] | A (Group A materials that assist biofilm detachment are defined as those having a PDV (as defined above) of at least 9) | –
OCCOc1ccccc1 [2-(phenyloxy)ethanol] | B (Group B materials that are non-active to biofilm detachment are defined as those having a PDV (as defined above) of less than 9 and greater than 0) | –
CCCCCCCC1CCC(=O)O1 (centres unmarked) [5-heptyldihydrofuran-2(3H)-one] | B (Group B materials that are non-active to biofilm detachment are defined as those having a PDV (as defined above) of less than 9 and greater than 0) | –
